Binding data for 1 molecule are collected here from US20240000786A1, “COMPOSITION FOR ENHANCING INTRA-CELLULAR NITRIC OXIDE GENERATION” (INSTITUTE OF LIFE SCIENCES, priority 2020, published 2024).

Assay [1] addresses T1, recombinant Nitric oxide synthase interacting protein (NOSIP) (Homo sapiens (Human)) (UniProt Q9Y314).
T1 sequence: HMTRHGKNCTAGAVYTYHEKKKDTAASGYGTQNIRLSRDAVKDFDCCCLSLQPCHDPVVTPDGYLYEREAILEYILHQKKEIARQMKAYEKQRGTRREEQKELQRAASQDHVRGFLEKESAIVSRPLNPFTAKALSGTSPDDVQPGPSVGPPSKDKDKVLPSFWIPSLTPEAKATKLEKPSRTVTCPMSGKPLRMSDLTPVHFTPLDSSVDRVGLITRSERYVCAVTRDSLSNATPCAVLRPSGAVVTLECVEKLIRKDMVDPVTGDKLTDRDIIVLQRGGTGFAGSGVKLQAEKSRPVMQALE
Briefly: ITC at 25 C, rNOSIP in the syringe titrated into iNOS peptide PP2 in the cell.

The target in assay [2] is T1, recombinant Nitric oxide synthase interacting protein (NOSIP) (Homo sapiens (Human)). The assay can be described thus: ITC; the same paragraph also says the SPR titration shows a dose dependent interaction between NOSIP and iNOS peptide 2. For orientation: In ITC the heat of successive injections is recorded.

These are yes or no findings as the source states them, for the method shown. Some binding calls cover weakened binding; strength is not graded here.

B1: iNOS Peptide-2 (18 mer iNOS peptide) (peptide)
peptide: NQYYGSFKEAKIEEHLAR
notes: 18-residue iNOS-derived peptide, synthesized commercially by China peptides; also called PP2; PP-2
As for B1, the binding result in assay [1] and in assay [2] was “binds” in each case.
